Laboratory results published in PubChem BioAssay AID2685 (National Center for Advancing Translational Sciences (NCATS), 2010).
The list shows a part of the results. Further columns of the screen follow, without active or inactive calls. Compounds called inactive in the main read-out are mostly missing here. Words in brackets tell the shape of the fitted curve; partial curves, single points and poor fits give uncertain potencies.

Experiment: qHTS Assay for Lipid Storage Modulators in Drosophila S3 Cells;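 for cell number change: cells counted by Cell Tracker Red CMTPX staining in the red channel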
Conditions: BODIPY lipid droplet fluorescence, 18-24 h; for cell number change: measured here: cell count max response, cells fed with added oleic acid
Outline: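 Laser-scanning cytometry quantifies lipid droplet accumulation (500–530 nm total intensity; droplet/cell object ratio) in oleic acid-fed (400 uM added) Drosophila S3 cells treated with a concentration series. 20 uM Triacsin C defined 100% inhibition.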

[1] = measured here: lipid fluorescence (Fed channel) AC50, cells fed with added oleic acid
[2] = measured here: cell number channel AC50, cells fed with added oleic acid

O=[N+]([O-])c1ccc(N/N=C2/CCCCC2c2ccccn2)c([N+](=O)[O-])c1 (stereo not drawn)
cell number change: 5.42% | AC50 [1]: 16.4 µM [rising, partial curve]

Cc1cc(=O)n2nc(N3CCCC(C(=O)NCCCN4CC(C)CC(C)C4)C3)sc2n1 (stereo not drawn)
cell number change: -21.8%

COc1ccc(-c2cc(C(=O)Nc3c(C)nn(Cc4ccccc4)c3C)no2)cc1
cell number change: -61.3% | AC50 [2]: 29.1 µM [falling, single point] | AC50 [1]: 0.82 µM [falling, full curve, poor fit]

COc1ccc(CCNC(=O)COC(=O)C2COc3ccccc3O2)cc1 (stereo not drawn)
cell number change: 6.45% | AC50 [1]: 18.4 µM [falling, partial curve, poor fit]

CCN(CC)Cc1c(C(=O)OC(C)C)nnn1-c1nonc1N
cell number change: -19.3% | AC50 [2]: 7.31 µM [falling, single point] | AC50 [1]: 20.6 µM [falling, partial curve]

COC(=O)COc1c(/C=C\c2nc(O)c([N+](=O)[O-])c(=O)[nH]2)cccc1OC
cell number change: 15.6% | AC50 [1]: 23.1 µM [rising, single point]

Cc1cccc(OC(C)C(=O)N/N=C\c2ccncc2)c1 (stereo not drawn)
cell number change: 16.1% | AC50 [1]: 0.00411 µM [rising, full curve, poor fit]

O=C(NCCC1CC1(Cl)Cl)Nc1ccccc1 (stereo not drawn)
cell number change: 12.5% | AC50 [1]: 0.00461 µM [rising, full curve, poor fit]

CCOC(=O)C1(Cc2cccc(F)c2)CCN(C(=O)Cn2cnnn2)CC1
cell number change: -21.8% | AC50 [2]: 0.0058 µM [falling, full curve, poor fit]

CCCCS/C(=C(/C#N)C(N)=O)c1cc2c([nH]1)CCCC2
cell number change: -44.8% | AC50 [2]: 2.91 µM [falling, full curve] | AC50 [1]: 11.6 µM [falling, partial curve]

COc1cc(S(=O)(=O)NC(C)C)ccc1Cl
cell number change: 13% | AC50 [1]: 6.51 µM [falling, single point]

Cc1ccc(C2=[N+]([O-])C(C)N(O)C2(C)C)o1 (stereo not drawn)
AC50 [1]: 0.82 µM [falling, partial curve]

CCC(=O)Nc1ccc(NC(=O)c2ccccn2)cn1
AC50 [2]: 1.64 µM [rising, partial curve]

Cc1nc(SCC(=O)NC(=O)NCc2ccco2)nc(C)c1C
cell number change: 7.17%

O=C(CSc1nnc2ccc3ccccc3n12)N1CCOCC1
cell number change: 21.4% | AC50 [1]: 1.16 µM [rising, partial curve]

CSc1nc(NCc2ccco2)c2c3c(sc2n1)CN(C)CC3
cell number change: 0.81% | AC50 [1]: 1.46 µM [falling, full curve]

CC(C)c1nnc(NC(=O)CS(=O)(=O)c2ccccc2)s1
cell number change: -9.24%

Cc1oc(-c2ccccc2Cl)nc1CS(=O)(=O)CC(=O)NCCc1ccccc1
cell number change: 0.576% | AC50 [1]: 1.64 µM [rising, partial curve, poor fit]

Cc1ccc(-c2nc3ccccc3o2)cc1NC(=O)c1ccc2c(c1)OCO2
AC50 [2]: 0.082 µM [rising, full curve, poor fit] | AC50 [1]: 0.13 µM [rising, full curve, poor fit]

CCN(Cc1cnn(C)c1)C(=O)c1cc(COc2ccc3c(c2)CCCC3)on1
cell number change: 0.54% | AC50 [1]: 29.1 µM [rising, single point]

CC1CCCC(NC(=O)COC(=O)c2ccccc2[N+](=O)[O-])C1C (stereo not drawn)
cell number change: 18.2% | AC50 [2]: 6.51 µM [rising, single point]

COc1ccc(NC(=O)COc2nsnc2N2CCOCC2)cc1
cell number change: 111% | AC50 [1]: 29.1 µM [rising, single point]

O=C(Cc1cccc(C(F)(F)F)c1)NCC(c1ccco1)N1CCCCC1 (stereo not drawn)
cell number change: -27%

CCC(=O)c1cn(CC(=O)NCC2CCCO2)c2ccccc12 (stereo not drawn)
cell number change: -0.705%

COc1ccc(NC(=O)CC2C(=O)N(Cc3ccco3)C(=S)N2C(C)C)cc1 (stereo not drawn)
cell number change: 5.76%

Cc1ccc(Cn2ncc3c(N4CCN(c5ccccc5C)CC4)ncnc32)cc1
AC50 [1]: 0.103 µM [rising, full curve, poor fit]

COc1ccccc1C(=O)NCCN=C1NS(=O)(=O)c2ccccc21
cell number change: 1.32% | AC50 [1]: 5.62 µM [falling, single point]

Cc1ccc(NC(=O)CCSc2nnc(C)o2)cc1
cell number change: 6.32%

COc1ccc2nc(NCCCNC(=O)c3cc(OC)c(OC)c(OC)c3)c(C#N)cc2c1
cell number change: 4.76% | AC50 [1]: 0.82 µM [rising, full curve, poor fit]

CSc1cccc(N2CC(C(=O)Nc3ccccc3N3CCCC3)CC2=O)c1 (stereo not drawn)
AC50 [2]: 0.116 µM [rising, full curve, poor fit]

Cc1cc(NC(=O)COC(=O)CNC(=O)c2cccs2)c([N+](=O)[O-])cc1C
cell number change: 8.32% | AC50 [1]: 0.103 µM [rising, full curve, poor fit]

CCOC(=O)c1oc2cc(O)c(CC)cc2c(=O)c1-c1cscn1
AC50 [1]: 0.291 µM [falling, full curve]

CCn1c(=O)n(CC)c2cc(NC(=O)CSc3ccc([N+](=O)[O-])cn3)ccc21
cell number change: 20.9% | AC50 [1]: 10.3 µM [rising, partial curve, poor fit]

Cc1c(C(=O)N2CCN(c3ncccn3)CC2)oc2c(Cl)cccc12
cell number change: 15.3% | AC50 [2]: 2.06 µM [rising, partial curve]

Cc1ccn2c(c1)nc(=O)c1cc(S(=O)(=O)N3CCC(C)CC3)ccc12
cell number change: -5.97%

CCOc1ccc(C(C(=O)NC(C)(C)C)N(CCOC)C(=O)CCC(=O)Nc2nccs2)cc1 (stereo not drawn)
AC50 [1]: 6.51 µM [rising, single point]

Cc1ccc(C)n1-c1ccc(C(=O)N/N=C/c2ccncc2)cc1
cell number change: -10.3% | AC50 [1]: 16.4 µM [falling, partial curve]

Cc1cc(C)c(NC(=O)/C=C\C(=O)O)c([N+](=O)[O-])c1
cell number change: -22.8% | AC50 [1]: 14.6 µM [falling, single point]

CCn1c2ccccc2c2cc(CNCc3ccc(OC)cc3OC)ccc21
cell number change: -68.6% | AC50 [2]: 18.4 µM [falling, single point] | AC50 [1]: 18.4 µM [falling, single point]

Clc1ccccc1/C=N/NC1=Nc2cccc3cccc1c23
cell number change: -60.9% | AC50 [2]: 29.1 µM [falling, single point] | AC50 [1]: 16.4 µM [falling, partial curve, poor fit]

CCOC(=O)NC(NC(=S)Nc1ccccc1[N+](=O)[O-])C(Cl)(Cl)Cl (stereo not drawn)
cell number change: -2.29% | AC50 [1]: 1.03 µM [falling, full curve, poor fit]

COc1ccc(OC)c(-n2nnnc2SCC(=O)Nc2ccc3c(c2)OCCO3)c1
cell number change: -5.97%

Cc1cccc(C(=O)N2CCC(N3CCC(C(=O)N4CCOCC4)CC3)CC2)c1
cell number change: -14.4% | AC50 [2]: 0.103 µM [rising, full curve, poor fit]

COc1cccc(NC(=O)COC(=O)c2ccc(S(=O)(=O)NCc3ccco3)cc2)c1
cell number change: -31.7% | AC50 [2]: 0.731 µM [falling, full curve]

O=C(O)CC1(CC(=O)Nc2ccc(F)cc2F)CCCCC1
cell number change: -18.6% | AC50 [2]: 4.11 µM [falling, single point] | AC50 [1]: 3.66 µM [falling, full curve, poor fit]

CCOC(=O)c1cccc(NS(=O)(=O)c2c(C)[nH]c(C)c2C(=O)N2CCCC2)c1
cell number change: -78.2% | AC50 [2]: 29.1 µM [falling, single point]

COc1ccc(Cn2cccc(NC(=O)Nc3cccc(C#N)c3)c2=O)cc1
cell number change: -35.1% | AC50 [2]: 16.4 µM [falling, partial curve] | AC50 [1]: 16.4 µM [falling, partial curve]

Cc1ccc(Sc2ccc(C(=O)NC(C)C)cc2[N+](=O)[O-])cc1
cell number change: -16.2% | AC50 [2]: 0.13 µM [falling, full curve, poor fit] | AC50 [1]: 25.9 µM [rising, single point]

Cc1cc(NC(=O)C(C)Oc2ccc(C(C)(C)C)cc2)no1 (stereo not drawn)
cell number change: 9.48% | AC50 [1]: 29.1 µM [rising, single point]

Cc1ccc(C(=O)N/C(=C\C=C\c2ccccc2)C(=O)NCc2ccco2)cc1
cell number change: 28.6%

CSc1ncc(S(=O)(=O)c2ccccc2)c(=O)[nH]1
cell number change: -52.6% | AC50 [2]: 18.4 µM [falling, single point] | AC50 [1]: 18.4 µM [falling, single point]

CNC(=O)CN(C)S(=O)(=O)c1ccc(OC)c(Cl)c1
cell number change: -17.6% | AC50 [2]: 0.291 µM [falling, partial curve, poor fit] | AC50 [1]: 4.11 µM [falling, full curve, poor fit]

COc1ccc(-c2nc(-c3ccccc3)no2)c(OC)c1
AC50 [1]: 6.51 µM [rising, single point]

CC(=O)c1sc2nc(SCC(=O)NCCc3ccccc3)[nH]c(=O)c2c1C
cell number change: 1.47% | AC50 [1]: 0.58 µM [falling, full curve, poor fit]

Cc1ccc(S(=O)(=O)NNC(=O)Nc2ccc(C)c(C)c2)c(C)c1
cell number change: -3.47% | AC50 [1]: 2.31 µM [rising, full curve, poor fit]

CCc1cc(=O)oc2cc(C)cc(OCC(=O)C(C)(C)C)c12
cell number change: -22.8%

CSc1ccccc1NC(=O)c1ccc([N+](=O)[O-])cc1
cell number change: -19.8% | AC50 [1]: 25.9 µM [rising, single point]

CSc1cccc(NC(=O)c2sc3nc4n(c(=O)c3c2C)CCC4)c1
cell number change: 20.1% | AC50 [2]: 2.91 µM [falling, single point] | AC50 [1]: 2.31 µM [falling, full curve, poor fit]

CCOC(=O)c1ccc(NC(=S)N(CCN2CCCCCC2)Cc2cccs2)cc1
AC50 [2]: 6.51 µM [rising, single point]

Cc1ccc(C(=O)CCC(=O)NC2=NCCS2)cc1
cell number change: 42.1% | AC50 [2]: 16.4 µM [rising, single point] | AC50 [1]: 0.13 µM [rising, full curve, poor fit]
